Test results from article PMC7455081.
Results are given in words; binding and its absence hold for the method and conditions named. Binding seen in cells or lysates may run through a third protein. Some entries that bind do so weakly or less than the wild type.

Molecular target: T1, Arrestin domain containing 3 (human (endogenous in AGS)) (UniProt Q96B67)
T1 sequence: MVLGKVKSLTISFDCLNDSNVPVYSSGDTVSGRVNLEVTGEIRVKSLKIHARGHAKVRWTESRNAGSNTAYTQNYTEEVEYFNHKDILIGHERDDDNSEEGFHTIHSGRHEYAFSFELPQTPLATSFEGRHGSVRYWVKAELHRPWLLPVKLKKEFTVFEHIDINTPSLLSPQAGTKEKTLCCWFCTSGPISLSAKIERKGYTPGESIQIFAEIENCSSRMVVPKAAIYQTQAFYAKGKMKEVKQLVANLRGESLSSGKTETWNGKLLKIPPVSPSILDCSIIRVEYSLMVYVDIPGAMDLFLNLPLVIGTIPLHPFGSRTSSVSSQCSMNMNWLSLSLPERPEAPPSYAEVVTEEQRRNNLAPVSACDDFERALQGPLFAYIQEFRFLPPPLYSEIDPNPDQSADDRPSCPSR
Test: co-IP; ARRDC3 immunoprecipitated with rabbit anti-ARRDC3 mAb (rabbit IgG as negative control) from whole-cell extracts of AGS cells infected with WT H. pylori (MOI = 100, 24 hours), pretreated with or without Bafilomycin A1 (1 uM); 4°C overnight, protein A/G magnetic beads; immunoblot with mouse anti-PAR1 mAb

B1: protease-activated receptor 1 (receptor, UniProt P25116 42-425)
chain: SFLLRNPNDKYEPFWEDEEKNESGLTEYRLVSINKSSPLQKQLPAFISEDASGYLTSSWLTLFVPSVYTGVFVVSLPLNIMAIVVFILKMKVKKPAVVYMLHLATADVLFVSVLPFKISYYFSGSDWQFGSELCRFVTAAFYCNMYASILLMTVISIDRFLAVVYPMQSLSWRTLGRASFTCLAIWALAIAGVVPLLLKEQTIQVPGLNITTCHDVLNETLLEGYYAYYFSAFSAVFFFVPLIISTVCYVSIIRCLSSSAVANRSKKSRALFLSAAVFCIFIICFGPTNVLLIAHYSFLSHTSTTEAAYFAYLLCVCVSSISCCIDPLIYYYASSECQRYVYSILCCKESSDPSSYNSSGQLMASKMDTCSSNLNNSIYKKLLT
binding: binds
